This is one part of the list.

Chains of the proteins cited; added tags and fusions are not shown. Lines headed by an entry give the natural chain unless they say otherwise; changes in a name come on top.
UniProt P49908, whole entry, looked up: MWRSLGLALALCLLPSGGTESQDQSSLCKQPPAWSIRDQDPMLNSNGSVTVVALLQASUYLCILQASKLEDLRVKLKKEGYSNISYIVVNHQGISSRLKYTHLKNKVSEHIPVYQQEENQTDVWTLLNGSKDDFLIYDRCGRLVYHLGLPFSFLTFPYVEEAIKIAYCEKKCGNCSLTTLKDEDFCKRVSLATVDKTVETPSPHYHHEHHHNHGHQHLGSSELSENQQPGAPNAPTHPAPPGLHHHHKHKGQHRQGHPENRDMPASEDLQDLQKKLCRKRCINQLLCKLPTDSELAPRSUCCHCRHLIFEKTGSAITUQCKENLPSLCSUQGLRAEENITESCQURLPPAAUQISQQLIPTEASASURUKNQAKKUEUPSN
UniProt P60059: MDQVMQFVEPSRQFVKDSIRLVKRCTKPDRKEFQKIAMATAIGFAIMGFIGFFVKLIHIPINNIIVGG
UniProt Q86XK3: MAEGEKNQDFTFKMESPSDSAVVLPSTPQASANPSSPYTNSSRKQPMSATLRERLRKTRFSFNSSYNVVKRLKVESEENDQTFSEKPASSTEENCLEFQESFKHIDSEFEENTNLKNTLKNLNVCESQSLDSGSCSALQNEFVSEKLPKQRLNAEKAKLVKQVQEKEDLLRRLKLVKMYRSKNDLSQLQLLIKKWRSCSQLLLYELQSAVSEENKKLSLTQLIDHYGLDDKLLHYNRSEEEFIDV
UniProt O43255: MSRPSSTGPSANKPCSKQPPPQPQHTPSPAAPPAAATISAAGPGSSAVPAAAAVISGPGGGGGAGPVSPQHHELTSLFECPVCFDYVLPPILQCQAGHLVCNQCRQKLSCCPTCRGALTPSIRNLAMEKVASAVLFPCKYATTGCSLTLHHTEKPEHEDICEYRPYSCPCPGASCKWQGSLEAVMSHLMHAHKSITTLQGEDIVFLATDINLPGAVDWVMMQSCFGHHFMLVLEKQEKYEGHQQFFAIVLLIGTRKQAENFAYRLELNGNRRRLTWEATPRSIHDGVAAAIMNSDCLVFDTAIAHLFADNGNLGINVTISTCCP
UniProt Q9NP31, whole entry, looked up: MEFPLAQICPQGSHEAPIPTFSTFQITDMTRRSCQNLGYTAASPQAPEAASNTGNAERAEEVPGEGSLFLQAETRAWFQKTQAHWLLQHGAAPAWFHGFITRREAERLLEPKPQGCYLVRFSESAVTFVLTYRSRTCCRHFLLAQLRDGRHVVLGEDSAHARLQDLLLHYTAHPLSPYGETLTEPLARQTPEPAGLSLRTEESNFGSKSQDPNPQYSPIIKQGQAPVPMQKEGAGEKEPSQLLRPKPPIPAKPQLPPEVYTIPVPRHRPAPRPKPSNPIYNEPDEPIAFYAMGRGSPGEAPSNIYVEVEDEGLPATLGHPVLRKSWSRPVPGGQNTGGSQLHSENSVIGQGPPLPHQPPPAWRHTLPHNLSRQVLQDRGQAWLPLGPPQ
UniProt O75563, whole entry, looked up: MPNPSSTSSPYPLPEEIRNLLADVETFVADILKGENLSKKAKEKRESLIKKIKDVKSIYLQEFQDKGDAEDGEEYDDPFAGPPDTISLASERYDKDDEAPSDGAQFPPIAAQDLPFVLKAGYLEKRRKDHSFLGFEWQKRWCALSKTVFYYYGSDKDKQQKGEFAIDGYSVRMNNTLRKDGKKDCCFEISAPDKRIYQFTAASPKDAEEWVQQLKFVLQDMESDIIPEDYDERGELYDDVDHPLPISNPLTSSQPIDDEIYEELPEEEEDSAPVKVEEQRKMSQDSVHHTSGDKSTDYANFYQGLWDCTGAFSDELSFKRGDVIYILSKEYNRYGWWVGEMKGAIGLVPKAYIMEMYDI
UniProt Q8N196: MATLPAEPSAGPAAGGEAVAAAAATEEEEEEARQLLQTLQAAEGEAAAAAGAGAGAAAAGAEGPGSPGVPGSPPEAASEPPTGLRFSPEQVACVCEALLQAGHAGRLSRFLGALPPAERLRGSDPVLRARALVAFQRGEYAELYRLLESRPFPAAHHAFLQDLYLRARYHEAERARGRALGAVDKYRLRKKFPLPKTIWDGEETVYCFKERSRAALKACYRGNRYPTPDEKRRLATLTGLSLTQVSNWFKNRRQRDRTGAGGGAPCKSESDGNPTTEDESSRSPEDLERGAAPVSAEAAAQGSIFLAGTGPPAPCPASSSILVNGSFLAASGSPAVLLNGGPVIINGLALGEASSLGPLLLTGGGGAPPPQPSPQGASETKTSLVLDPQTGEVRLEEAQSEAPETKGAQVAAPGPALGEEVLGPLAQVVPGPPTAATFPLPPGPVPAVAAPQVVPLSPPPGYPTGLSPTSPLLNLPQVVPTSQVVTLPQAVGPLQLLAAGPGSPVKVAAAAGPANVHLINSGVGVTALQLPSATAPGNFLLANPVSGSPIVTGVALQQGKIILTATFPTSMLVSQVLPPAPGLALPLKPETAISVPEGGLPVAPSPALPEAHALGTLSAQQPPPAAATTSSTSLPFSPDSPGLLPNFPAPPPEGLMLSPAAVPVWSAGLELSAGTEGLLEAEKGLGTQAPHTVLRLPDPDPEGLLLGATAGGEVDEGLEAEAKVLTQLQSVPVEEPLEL
UniProt Q2M3G4: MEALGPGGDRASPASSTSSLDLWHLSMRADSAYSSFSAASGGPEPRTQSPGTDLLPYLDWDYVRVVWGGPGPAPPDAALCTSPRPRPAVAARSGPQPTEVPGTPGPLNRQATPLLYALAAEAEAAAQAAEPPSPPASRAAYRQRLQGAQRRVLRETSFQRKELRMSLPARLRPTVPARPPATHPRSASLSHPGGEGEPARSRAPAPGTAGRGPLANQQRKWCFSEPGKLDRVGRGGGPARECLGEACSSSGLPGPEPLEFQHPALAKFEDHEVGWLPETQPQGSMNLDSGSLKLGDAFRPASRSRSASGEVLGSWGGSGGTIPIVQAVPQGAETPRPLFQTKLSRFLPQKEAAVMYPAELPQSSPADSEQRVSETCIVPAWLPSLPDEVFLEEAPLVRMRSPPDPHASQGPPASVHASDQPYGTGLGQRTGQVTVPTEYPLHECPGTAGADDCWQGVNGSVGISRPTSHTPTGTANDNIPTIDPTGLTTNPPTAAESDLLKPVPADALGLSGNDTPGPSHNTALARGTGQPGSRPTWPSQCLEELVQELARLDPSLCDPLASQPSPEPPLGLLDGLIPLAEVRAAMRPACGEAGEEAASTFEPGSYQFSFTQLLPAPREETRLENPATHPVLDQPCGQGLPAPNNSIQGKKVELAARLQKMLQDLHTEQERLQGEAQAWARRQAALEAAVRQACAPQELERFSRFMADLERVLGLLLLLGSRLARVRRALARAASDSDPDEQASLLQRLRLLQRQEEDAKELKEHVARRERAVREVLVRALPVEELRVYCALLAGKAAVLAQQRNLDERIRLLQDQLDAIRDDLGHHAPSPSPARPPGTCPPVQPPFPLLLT
UniProt Q16181: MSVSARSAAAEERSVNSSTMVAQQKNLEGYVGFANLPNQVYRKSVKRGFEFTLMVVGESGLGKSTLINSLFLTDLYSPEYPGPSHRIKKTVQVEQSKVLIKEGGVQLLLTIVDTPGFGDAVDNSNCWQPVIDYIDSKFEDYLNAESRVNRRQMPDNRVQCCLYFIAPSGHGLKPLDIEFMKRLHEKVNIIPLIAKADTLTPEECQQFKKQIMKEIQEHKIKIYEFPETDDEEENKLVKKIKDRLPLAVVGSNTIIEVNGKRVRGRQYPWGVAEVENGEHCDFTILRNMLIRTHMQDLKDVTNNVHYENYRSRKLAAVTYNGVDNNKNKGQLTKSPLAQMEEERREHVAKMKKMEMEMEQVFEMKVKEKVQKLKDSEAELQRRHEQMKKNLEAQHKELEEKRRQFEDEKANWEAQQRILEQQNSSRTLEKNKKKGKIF
UniProt O75635: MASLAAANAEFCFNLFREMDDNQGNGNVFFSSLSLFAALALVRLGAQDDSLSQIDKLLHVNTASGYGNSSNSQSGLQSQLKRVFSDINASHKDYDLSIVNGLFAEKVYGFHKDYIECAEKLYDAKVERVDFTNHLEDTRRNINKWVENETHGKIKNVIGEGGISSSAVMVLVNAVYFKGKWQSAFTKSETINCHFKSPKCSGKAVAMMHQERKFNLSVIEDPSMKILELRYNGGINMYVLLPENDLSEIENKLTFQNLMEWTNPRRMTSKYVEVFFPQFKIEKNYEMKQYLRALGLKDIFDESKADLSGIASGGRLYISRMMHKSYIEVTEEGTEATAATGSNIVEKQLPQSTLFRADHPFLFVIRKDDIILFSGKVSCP
UniProt Q9NTG7: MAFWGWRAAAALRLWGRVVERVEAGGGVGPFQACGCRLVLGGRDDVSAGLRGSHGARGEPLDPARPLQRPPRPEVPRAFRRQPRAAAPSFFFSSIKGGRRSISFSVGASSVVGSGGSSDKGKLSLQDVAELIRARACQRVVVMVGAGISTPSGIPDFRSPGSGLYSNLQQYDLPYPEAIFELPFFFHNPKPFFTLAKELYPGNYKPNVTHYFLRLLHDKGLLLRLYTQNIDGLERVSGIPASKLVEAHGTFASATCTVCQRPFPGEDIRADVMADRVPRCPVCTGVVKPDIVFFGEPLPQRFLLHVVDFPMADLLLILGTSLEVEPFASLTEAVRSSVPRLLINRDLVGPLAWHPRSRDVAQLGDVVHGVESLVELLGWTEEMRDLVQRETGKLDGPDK
UniProt Q8NC51: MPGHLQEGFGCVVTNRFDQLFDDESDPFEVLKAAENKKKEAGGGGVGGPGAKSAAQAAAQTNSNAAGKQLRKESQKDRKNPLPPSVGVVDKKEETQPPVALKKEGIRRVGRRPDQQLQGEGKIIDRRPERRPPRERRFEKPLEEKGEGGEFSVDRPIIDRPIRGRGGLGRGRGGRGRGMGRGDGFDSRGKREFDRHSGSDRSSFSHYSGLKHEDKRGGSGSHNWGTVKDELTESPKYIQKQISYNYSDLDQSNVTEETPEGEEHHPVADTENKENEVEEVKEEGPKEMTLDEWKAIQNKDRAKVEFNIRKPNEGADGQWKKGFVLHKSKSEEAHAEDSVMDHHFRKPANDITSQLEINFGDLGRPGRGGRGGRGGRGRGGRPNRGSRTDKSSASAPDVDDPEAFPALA
UniProt Q9ULL8: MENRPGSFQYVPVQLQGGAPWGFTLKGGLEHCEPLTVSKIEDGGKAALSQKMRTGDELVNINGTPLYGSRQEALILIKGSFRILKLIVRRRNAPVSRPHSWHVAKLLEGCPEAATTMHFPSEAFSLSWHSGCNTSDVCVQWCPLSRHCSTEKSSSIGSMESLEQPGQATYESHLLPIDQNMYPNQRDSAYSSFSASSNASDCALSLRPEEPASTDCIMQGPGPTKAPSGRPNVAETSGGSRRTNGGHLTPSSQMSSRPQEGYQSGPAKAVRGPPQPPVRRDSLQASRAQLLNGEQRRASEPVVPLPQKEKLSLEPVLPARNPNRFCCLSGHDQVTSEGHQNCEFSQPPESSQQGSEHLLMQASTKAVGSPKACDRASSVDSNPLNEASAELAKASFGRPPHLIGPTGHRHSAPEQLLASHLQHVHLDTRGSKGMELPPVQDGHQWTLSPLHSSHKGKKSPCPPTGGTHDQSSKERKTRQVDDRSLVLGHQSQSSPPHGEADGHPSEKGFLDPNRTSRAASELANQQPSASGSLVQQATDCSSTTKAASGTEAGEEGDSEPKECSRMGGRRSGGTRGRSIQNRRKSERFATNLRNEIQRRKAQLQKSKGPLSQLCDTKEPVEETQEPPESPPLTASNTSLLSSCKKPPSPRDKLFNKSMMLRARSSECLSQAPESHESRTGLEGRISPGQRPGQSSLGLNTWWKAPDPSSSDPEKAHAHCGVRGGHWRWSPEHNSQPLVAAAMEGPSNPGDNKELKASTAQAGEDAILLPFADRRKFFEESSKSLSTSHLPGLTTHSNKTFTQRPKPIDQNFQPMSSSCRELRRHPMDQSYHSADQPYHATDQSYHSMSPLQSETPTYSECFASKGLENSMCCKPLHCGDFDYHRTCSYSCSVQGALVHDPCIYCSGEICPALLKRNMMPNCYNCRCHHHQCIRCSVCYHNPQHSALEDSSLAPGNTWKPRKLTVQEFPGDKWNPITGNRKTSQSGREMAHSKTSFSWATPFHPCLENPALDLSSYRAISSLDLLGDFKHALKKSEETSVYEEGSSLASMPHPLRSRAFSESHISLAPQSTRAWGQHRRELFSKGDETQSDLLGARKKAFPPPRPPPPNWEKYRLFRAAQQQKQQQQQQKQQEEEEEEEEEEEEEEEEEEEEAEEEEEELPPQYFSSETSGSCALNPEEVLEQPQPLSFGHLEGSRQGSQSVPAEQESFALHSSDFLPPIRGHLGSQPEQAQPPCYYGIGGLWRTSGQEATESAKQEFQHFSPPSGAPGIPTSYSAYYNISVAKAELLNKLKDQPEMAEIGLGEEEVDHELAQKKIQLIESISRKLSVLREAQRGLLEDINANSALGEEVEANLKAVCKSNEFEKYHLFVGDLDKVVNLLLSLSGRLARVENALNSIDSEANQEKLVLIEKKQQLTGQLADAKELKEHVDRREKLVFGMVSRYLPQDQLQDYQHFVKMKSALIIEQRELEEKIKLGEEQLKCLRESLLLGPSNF

Compound in the first assay: NC(=O)Nc1cc(-c2cccc(F)c2)sc1C(=O)N[C@H]1CCCNC1
The assay is described as follows: log2 fold change, soluble protein after heating vs DMSO (PISA); higher = thermal stabilisation; K562 cells, 10 uM, 30 min; active = over 0.2 and 3.5 SD of the protein, either way, in both replicates (recomputed). The essentials: (§1)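 Soluble protein was defined as the supernatant after 21,000xg for 90 min. It came from K562 cells at 2×10^6 cells/mL given 10 μM compound for 30 min, heated in aliquots for 3 min across 48°C-58°C, pooled, and extracted in PBS with 0.5% NP-40 at 4°C, and was quantified by TMTpro 16plex LC-MS/MS with equalised channel sums. Thermal stability against control samples, from duplicates, is reported as log2 fold change.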
Turning to SHANK2 isoform 3 (UniProt Q9UPX8), the log2 fold change was inactive: -0.275.

For SERPINB5 (UniProt P36952), the log2 fold change is inactive: 0.365. As to SH3GL3 isoform 3 (UniProt Q99963), the log2 fold change is inactive: -0.049. Consider SINHCAF (UniProt Q9NP50), for which the log2 fold change is inactive: 0.677. On the same count and under the same terms, the result for SELENOP (UniProt P49908) reads inactive: 0.061; that for SEC61G (UniProt P60059), inactive: -0.239. Still for that read-out and setting: the result for SFR1 isoform 2 (UniProt Q86XK3) reads inactive: 0.294.

Compound in the next assay: NC(=O)c1cnc(N[C@@H]2CCCC[C@@H]2N)nc1Nc1cccc(-n2nccn2)c1
The description is as above. The essentials: as §1
As for SIAH2 (UniProt O43255), the log2 fold change was inactive: 0.007. As to SH2D2A isoform 2 (UniProt Q9NP31), the log2 fold change is inactive: 0.212. Same read-out and setting: next, SKAP2 (UniProt O75563): inactive: -0.138; SIX5 (UniProt Q8N196): inactive: -0.065; SEPTIN2 (UniProt B5MCX3): inactive: -0.195. Same read-out and setting: next, SETD2 (UniProt Q9BYW2): inactive: -0.003; SHROOM1 (UniProt Q2M3G4): inactive: 0.128. In the case of SH3BGR (UniProt P55822), the log2 fold change was inactive: -0.039.

As to SEPTIN7 isoform 2 (UniProt Q16181), the log2 fold change was inactive: 0.074. Same read-out and setting: next, SERPINB7 (UniProt O75635): inactive: -0.084; SIRT3 (UniProt Q9NTG7): inactive: -0.091; SERBP1 isoform 3 (UniProt Q8NC51): inactive: 0.037.

In the case of SHC1 (UniProt P29353), the log2 fold change is inactive: 0.149. On to SF1 (UniProt H7C0N4), for which the log2 fold change is inactive: 0.062. Same read-out and setting: next, SHROOM4 (UniProt Q9ULL8): inactive: 0.035.

(Values after the supplement of paper PMC10849652.)
